The text below walks through data of PMC7962252.

Chains of the proteins cited; added tags and fusions are not shown. Lines headed by an entry give the natural chain unless they say otherwise; changes in a name come on top.
UniProt Q9BL47: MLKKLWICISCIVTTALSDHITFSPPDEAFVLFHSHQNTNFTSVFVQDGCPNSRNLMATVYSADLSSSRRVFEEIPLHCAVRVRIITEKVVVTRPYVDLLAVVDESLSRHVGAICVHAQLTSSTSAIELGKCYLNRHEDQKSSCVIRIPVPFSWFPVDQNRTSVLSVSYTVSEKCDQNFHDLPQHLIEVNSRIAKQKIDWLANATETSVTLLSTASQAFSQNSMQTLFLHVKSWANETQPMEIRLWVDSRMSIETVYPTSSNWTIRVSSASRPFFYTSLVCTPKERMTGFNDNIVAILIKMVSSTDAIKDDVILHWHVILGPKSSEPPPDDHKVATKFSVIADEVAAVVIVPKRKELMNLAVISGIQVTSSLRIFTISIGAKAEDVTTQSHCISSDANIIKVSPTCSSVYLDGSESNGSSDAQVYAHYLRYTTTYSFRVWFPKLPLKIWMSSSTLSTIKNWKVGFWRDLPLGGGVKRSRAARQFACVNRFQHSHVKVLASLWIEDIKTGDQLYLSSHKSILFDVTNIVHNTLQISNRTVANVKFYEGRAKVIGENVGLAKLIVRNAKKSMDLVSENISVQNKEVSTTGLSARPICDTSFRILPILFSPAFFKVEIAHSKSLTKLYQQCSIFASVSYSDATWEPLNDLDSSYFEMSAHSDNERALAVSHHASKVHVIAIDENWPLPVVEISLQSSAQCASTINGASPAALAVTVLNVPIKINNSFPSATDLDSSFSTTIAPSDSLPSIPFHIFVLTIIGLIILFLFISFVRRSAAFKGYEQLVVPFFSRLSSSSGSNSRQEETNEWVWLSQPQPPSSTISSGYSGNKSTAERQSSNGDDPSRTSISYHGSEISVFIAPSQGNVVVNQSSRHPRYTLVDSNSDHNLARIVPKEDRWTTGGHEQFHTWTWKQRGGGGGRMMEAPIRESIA

These are yes or no findings as the source states them, for the method shown. A result given as binding can be weak or reduced; the word gives no strength.

This test deals with C. elegans TMEM-132 C-terminus (yeast two-hybrid bait) (C. elegans) (UniProt Q9BL47). Briefly: two-hybrid; Matchmaker Gold yeast two-hybrid; TMEM132D or TMEM-132 C-terminus as bait (pGBKT7), NAP1 or GEX-3 as prey (pGADT7); read by yeast colony growth; verified by co-transformation of extracted and re-cloned plasmids.

On to “GEX-3 C-terminal 600 a.a. fragment (yeast two-hybrid) (from UniProt P55163) (domain or fragment)”, for which the binding result is recorded as “binds”.
For the molecule “GEX-3 C-terminal 60 a.a. fragment (yeast two-hybrid) (from UniProt P55163) (domain or fragment)”, the binding result is reported as “binds”.

B1: GEX-3 full length (yeast two-hybrid) (protein, UniProt P55163 1-1141)
chain: MAYKDARQVKIAEKLVILNDRAAGMMTRIYNIKKSSGDSKVKPQFLSDKKMEGAIKHIVRKFPVVDCRSNSSTFEYVQEKSTEITKSLSLYYYTFADILDLKDHIMQVLTTMESCQCQLDVTLNYDLTTSYLNLVVHLVTMMILLSRIEDRKAVLGLFNAAYDLQHGQSEASFPRLGQMILDYENPLKKLHEDLGPLNRLIYSALSSVTHTYQRRNKTADSWRTSNVFSLTAAPAQILYAAQTETIACEYLSLDVIDRWIVFCGTVCHSTLLNDDNIRHMWQLALQMNLCLRVFRDETFIVHQEIQAFLESSKEKSKRLQDVKDAFNHASVTAVAVHADRRRFLRSSLRELSLLLRDQPGLLGPKILYVWMALGAGRDEVIWLLRHQVEVPAISKKGSRMVEELVDRQLPELLFYMLELRDLVTKYYAVIQRYYLQYVSSYDSIVVSEEINQANGLTQEEAVLLTDFANEIGNINSDTDLRALRLDWFRFQAWTSAARSHFQLSRHKKLAIYMNTSVFHLKMIDLQDEMLRETSDLSLYCFYPKLAEKHWLNCLQLPAQARYVLSFARLAAHFTSALHDMCPEEKAFITEKALAQCNSVIEETCKQLSYILEKVAEHEFGLAYQMTPSAVAVRVVAQVVQQKGSGKAAAAAAAAARDYFIAGEESYRVDRQALTMPDKLQTTLLEISAALGAHRQIYVADHTFAPRTYLAQSLETKFVELLHGMFWEGQPHASNPKRPSEMLLALQAYMTVLQNLDTAISVDISNTMQTTLLQQTQLVDSKNKDTIAALYTKWYLEVLLRRASSGHMVWSEHLRTMLSSGQEQLSFMPDHYSDPQELRALVQIIGPYGVKLMTERLIWHVASQIMEMSKIVATYKDALQIARSNFDNAEKMKDVLNLLSVEPKDKKTPNATCAADAILQRTIIIGQICLFRDALHDALRHIVESKLPFLQASFDMLYHNLDDVDKVKIGEMSAAMGVTGPVDMSLVNAVRAQNPNIHPQEHYVNSCLLMVAVAICIPRIGMSDLSSYKPSIQASLNNSHCVPMAINTIGSALFHLHEQNDIQSRMKEFLALASSGILRTIHERDNSRQISDDVLRSHTTLYIILEQMVRKNRWLSMDVLETCFPYNLVRTAYQQCYEADAQ
B1: the binding result is “binds”.
